PubChem BioAssay AID1224830 | NIAID, 2016
Shown is one part, drawn at random, of about 18,000 reagents tested. In the full data, about 2,900 (16%) were called active. 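Calls are made per well; low scores hint the gene aids the LPS response, high scores that it dampens it.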 The numbers tell different reagents against one gene apart. Repeated entries: four replicate wells of each siRNA pool.

- Screen: 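Genes whose knock-down alters the TNF-alpha reporter response to LPS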 (primary screen)
- Cell system: human THP-1 monocytic leukaemia cells, TNF dual-luciferase reporter clone, PMA-differentiated to macrophage-like cells
- Knock-down reagent: siRNA pool against human genes, 50 nM
- Time to read-out: LPS for 4 h, given about 3 days after siRNA transfection
- Challenge: bacterial LPS (TLR4 ligand), 10 ng/ml
- Measured: 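TNF firefly reporter luminescence divided by renilla, normalised to the plate median, then turned into a robust z-score for each replicate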
- Direction: TNF reporter robust z-score: higher = stronger TNF reporter response to LPS
- Rule for the call: 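Each well counts as active if its z-score is over 2.8 or under -1.5; controls are left without a call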

| gene | reagent | TNF reporter robust z-score | activity call |
| --- | --- | --- | --- |
| DCDC1 | 1 | 0.95 | inactive |
| DCDC1 | 1 | 1.74 | inactive |
| DCDC1 | 1 | 2.29 | inactive |
| DCDC1 | 1 | 0.9 | inactive |
| DCDC1 | 2 | -0.8 | inactive |
| DCDC1 | 2 | 0.29 | inactive |
| DCDC1 | 2 | -0.51 | inactive |
| DCDC1 | 2 | -1.04 | inactive |
| MID2 | 1 | -1.88 | active |
| MID2 | 1 | -0.06 | inactive |
| MID2 | 1 | -1.44 | inactive |
| MID2 | 1 | -0.85 | inactive |
| SYNRG | 1 | 1.08 | inactive |
| SYNRG | 1 | 1.06 | inactive |
| SYNRG | 1 | 0.14 | inactive |
| SYNRG | 1 | 1.31 | inactive |
| MEGF9 | 1 | 0.49 | inactive |
| MEGF9 | 1 | 1.12 | inactive |
| MEGF9 | 1 | -0.41 | inactive |
| MEGF9 | 1 | 0.6 | inactive |
| LHX6 | 1 | -0.48 | inactive |
| LHX6 | 1 | -0.79 | inactive |
| LHX6 | 1 | -0.38 | inactive |
| LHX6 | 1 | -0.15 | inactive |
| OR2T2 | 1 | -0.1 | inactive |
| OR2T2 | 1 | -0.7 | inactive |
| OR2T2 | 1 | -0.68 | inactive |
| SLC8A3 | 1 | 2.95 | active |
| SLC8A3 | 1 | 2.51 | inactive |
| SLC8A3 | 1 | 1.72 | inactive |
| SLC8A3 | 1 | 1.13 | inactive |
| ZNF622 | 1 | -0.47 | inactive |
| ZNF622 | 1 | -0.28 | inactive |
| ZNF622 | 1 | -0.22 | inactive |
| ZNF622 | 1 | 0.15 | inactive |
| TTC27 | 1 | 0 | inactive |
| TTC27 | 1 | -0.22 | inactive |
| TTC27 | 1 | 0.62 | inactive |
| TTC27 | 1 | 1.15 | inactive |
| MORC3 | 1 | -0.8 | inactive |
| MORC3 | 1 | -0.55 | inactive |
| MORC3 | 1 | -0.85 | inactive |
| MORC3 | 1 | -1.28 | inactive |
| KRT37 | 1 | -1.3 | inactive |
| KRT37 | 1 | -1.07 | inactive |
| KRT37 | 1 | -1.34 | inactive |
| KRT37 | 1 | -0.67 | inactive |
| PGM1 | 1 | 1.63 | inactive |
| PGM1 | 1 | 0.02 | inactive |
| PGM1 | 1 | -0.7 | inactive |
| PGM1 | 1 | -0.23 | inactive |
| KCNA7 | 1 | 0.88 | inactive |
| KCNA7 | 1 | 2.81 | active |
| KCNA7 | 1 | 1.33 | inactive |
| KCNA7 | 1 | 0.59 | inactive |
| GNPDA1 | 1 | -0.86 | inactive |
| GNPDA1 | 1 | -0.1 | inactive |
| GNPDA1 | 1 | -0.94 | inactive |
| GNPDA1 | 1 | -0.48 | inactive |
| ZNF835 | 1 | -0.77 | inactive |
| ZNF835 | 1 | -0.75 | inactive |
| ZNF835 | 1 | -0.91 | inactive |
| ZNF835 | 1 | -0.93 | inactive |
| LRP11 | 1 | -1.17 | inactive |
| LRP11 | 1 | -1.09 | inactive |
| LRP11 | 1 | -0.68 | inactive |
| LRP11 | 1 | -1.11 | inactive |
| IQCC | 1 | 0.2 | inactive |
| IQCC | 1 | 1.23 | inactive |
| IQCC | 1 | -0.08 | inactive |
| IQCC | 1 | 1 | inactive |
| OR10A2 | 1 | -0.75 | inactive |
| OR10A2 | 1 | -0.29 | inactive |
| OR10A2 | 1 | -0.34 | inactive |
| OR10A2 | 1 | -0.82 | inactive |
| ZC3H7B | 1 | 1.67 | inactive |
| ZC3H7B | 1 | 0.97 | inactive |
| ZC3H7B | 1 | 2 | inactive |
| ZC3H7B | 1 | 1.47 | inactive |
| ZNF274 | 1 | -0.88 | inactive |
| ZNF274 | 1 | -0.64 | inactive |
| ZNF274 | 1 | -0.25 | inactive |
| ZNF274 | 1 | -0.49 | inactive |
| BMP6 | 1 | 0.44 | inactive |
| BMP6 | 1 | 2.1 | inactive |
| BMP6 | 1 | 0.84 | inactive |
| KLHL35 | 1 | -1 | inactive |
| KLHL35 | 1 | -1.62 | active |
| KLHL35 | 1 | -1.08 | inactive |
| KLHL35 | 1 | -0.52 | inactive |
| NLRP3 | 1 | 0.59 | inactive |
| NLRP3 | 1 | -0.18 | inactive |
| NLRP3 | 1 | 0.22 | inactive |
| NLRP3 | 1 | -0.5 | inactive |
| LIPG | 1 | -0.38 | inactive |
| LIPG | 1 | 0.9 | inactive |
| LIPG | 1 | 0.01 | inactive |
| LIPG | 1 | 0.54 | inactive |
| TSBP1 | 1 | 0.82 | inactive |
| TSBP1 | 1 | 1.25 | inactive |
| TSBP1 | 1 | 1.23 | inactive |
| TSBP1 | 1 | -0.91 | inactive |
| DNLZ | 1 | 0.81 | inactive |
| DNLZ | 1 | 1.62 | inactive |
| DNLZ | 1 | 2.35 | inactive |
| DNLZ | 1 | 3.05 | active |
| ZNF44 | 1 | 2.32 | inactive |
| ZNF44 | 1 | 1.83 | inactive |
| ZNF44 | 1 | 1.11 | inactive |
| ZNF44 | 1 | 1.79 | inactive |
